Measurements reported in the supplement of paper PMC10032668.
This is one part of the list. Only hits are listed; about a third recur on repeated control peptides.

The chains behind the UniProt entries cited, without tags or fusion partners.
DCTN1, Q14203, UniProt Q14203, whole entry: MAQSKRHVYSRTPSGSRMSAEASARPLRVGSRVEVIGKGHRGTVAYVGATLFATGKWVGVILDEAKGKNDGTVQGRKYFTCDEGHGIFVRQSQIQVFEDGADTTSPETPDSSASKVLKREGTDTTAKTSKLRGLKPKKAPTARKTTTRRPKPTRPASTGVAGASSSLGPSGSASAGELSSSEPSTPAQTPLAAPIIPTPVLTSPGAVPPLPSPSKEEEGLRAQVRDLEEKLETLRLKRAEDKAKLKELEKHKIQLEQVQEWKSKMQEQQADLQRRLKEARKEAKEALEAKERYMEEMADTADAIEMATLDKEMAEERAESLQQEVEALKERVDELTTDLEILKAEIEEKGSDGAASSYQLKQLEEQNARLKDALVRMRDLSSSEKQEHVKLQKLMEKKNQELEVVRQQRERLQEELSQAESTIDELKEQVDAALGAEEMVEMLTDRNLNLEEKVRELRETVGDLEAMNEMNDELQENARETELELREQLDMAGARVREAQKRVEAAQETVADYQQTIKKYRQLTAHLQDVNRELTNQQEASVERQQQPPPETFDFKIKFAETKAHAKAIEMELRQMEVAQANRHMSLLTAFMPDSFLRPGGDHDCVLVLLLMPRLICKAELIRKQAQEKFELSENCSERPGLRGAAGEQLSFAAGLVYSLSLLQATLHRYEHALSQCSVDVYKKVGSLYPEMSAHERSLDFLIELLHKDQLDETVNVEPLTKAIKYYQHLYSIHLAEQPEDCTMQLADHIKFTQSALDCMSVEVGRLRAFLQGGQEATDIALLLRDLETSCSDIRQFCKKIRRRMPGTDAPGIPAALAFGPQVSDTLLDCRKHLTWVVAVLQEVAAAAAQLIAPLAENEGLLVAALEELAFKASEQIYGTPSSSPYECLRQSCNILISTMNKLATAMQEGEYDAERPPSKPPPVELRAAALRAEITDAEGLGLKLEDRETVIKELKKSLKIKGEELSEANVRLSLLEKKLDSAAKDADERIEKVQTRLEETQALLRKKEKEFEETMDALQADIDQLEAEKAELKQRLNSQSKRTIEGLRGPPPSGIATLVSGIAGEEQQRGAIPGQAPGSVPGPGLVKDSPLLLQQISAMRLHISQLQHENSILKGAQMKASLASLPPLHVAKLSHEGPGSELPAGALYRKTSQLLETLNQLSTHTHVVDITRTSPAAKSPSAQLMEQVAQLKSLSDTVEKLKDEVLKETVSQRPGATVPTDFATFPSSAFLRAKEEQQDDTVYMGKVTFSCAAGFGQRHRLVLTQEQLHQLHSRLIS
EIF3K, Q9UBQ5, UniProt Q9UBQ5, whole entry: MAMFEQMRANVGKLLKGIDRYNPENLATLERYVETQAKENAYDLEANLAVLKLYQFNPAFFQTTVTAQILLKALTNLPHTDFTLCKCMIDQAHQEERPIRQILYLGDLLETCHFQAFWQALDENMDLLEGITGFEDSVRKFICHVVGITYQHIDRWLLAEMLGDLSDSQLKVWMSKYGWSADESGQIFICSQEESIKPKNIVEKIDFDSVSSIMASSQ
EIF4G3, O43432, UniProt O43432, whole entry: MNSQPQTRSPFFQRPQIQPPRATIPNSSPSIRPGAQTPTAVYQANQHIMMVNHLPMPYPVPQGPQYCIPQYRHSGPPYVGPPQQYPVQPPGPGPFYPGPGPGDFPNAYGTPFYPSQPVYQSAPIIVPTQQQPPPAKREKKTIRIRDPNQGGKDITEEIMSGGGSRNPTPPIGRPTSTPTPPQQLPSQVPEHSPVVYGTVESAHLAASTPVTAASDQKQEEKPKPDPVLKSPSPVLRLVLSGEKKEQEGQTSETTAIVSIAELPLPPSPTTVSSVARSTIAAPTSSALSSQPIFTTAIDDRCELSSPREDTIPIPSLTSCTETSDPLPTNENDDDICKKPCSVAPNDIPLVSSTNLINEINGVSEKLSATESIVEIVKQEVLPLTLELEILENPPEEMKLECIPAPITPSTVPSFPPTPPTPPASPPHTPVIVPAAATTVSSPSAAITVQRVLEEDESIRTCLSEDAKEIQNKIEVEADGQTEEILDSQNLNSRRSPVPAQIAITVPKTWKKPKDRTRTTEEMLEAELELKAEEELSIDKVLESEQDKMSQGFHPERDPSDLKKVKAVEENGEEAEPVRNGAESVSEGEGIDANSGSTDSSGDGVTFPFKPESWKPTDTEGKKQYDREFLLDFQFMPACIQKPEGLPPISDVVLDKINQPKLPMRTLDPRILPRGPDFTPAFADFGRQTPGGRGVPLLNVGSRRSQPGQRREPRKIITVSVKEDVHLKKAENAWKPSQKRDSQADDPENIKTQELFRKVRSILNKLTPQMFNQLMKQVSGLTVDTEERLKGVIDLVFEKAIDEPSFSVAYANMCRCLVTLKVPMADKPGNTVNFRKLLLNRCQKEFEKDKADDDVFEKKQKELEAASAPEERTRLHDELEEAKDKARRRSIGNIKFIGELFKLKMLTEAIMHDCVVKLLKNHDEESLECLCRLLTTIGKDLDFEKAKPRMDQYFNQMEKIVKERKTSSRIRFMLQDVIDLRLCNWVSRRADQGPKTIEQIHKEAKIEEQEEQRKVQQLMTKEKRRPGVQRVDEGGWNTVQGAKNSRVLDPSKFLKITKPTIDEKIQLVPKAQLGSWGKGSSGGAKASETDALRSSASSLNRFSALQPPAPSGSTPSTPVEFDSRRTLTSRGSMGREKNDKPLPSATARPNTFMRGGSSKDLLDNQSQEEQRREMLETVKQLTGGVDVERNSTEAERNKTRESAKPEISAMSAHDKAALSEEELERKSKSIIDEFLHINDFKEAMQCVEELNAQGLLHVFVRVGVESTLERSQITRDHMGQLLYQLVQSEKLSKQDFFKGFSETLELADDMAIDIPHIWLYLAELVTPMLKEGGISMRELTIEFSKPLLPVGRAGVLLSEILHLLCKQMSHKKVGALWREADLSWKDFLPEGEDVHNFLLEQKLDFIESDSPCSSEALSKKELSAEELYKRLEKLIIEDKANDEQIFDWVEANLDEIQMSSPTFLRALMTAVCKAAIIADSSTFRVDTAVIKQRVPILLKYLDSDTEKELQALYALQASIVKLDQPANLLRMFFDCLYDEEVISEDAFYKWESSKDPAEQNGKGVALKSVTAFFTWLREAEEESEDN
HIST1H1E, P10412, UniProt P10412, whole entry: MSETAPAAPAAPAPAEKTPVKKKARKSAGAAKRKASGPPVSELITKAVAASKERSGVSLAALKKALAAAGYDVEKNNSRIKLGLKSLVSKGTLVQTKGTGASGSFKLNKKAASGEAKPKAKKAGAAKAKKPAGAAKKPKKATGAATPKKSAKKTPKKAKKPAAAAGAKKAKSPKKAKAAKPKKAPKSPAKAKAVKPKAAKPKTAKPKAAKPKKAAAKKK
KHDRBS1, Q07666, UniProt Q07666, whole entry: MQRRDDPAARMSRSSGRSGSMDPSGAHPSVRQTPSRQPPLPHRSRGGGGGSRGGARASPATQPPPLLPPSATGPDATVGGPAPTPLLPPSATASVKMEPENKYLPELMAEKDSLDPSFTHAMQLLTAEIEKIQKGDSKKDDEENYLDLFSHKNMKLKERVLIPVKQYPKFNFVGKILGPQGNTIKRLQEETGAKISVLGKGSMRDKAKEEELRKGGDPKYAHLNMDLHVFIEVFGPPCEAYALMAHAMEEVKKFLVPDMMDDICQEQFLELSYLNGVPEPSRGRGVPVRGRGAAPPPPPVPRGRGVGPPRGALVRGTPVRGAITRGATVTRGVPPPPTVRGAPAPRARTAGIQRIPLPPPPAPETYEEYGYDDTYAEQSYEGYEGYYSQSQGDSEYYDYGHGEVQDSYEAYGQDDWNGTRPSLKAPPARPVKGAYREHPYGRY
LRPAP1, P30533, UniProt P30533, whole entry: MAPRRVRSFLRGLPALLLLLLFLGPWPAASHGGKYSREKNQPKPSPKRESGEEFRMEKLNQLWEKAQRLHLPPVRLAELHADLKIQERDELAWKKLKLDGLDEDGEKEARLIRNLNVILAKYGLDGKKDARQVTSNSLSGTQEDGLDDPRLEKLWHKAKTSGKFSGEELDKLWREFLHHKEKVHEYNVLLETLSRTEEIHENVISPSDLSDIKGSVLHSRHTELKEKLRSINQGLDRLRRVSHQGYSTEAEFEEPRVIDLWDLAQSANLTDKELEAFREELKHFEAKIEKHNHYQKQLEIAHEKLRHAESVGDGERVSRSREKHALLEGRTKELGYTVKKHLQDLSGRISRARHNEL
MED12, Q93074, UniProt Q93074, whole entry: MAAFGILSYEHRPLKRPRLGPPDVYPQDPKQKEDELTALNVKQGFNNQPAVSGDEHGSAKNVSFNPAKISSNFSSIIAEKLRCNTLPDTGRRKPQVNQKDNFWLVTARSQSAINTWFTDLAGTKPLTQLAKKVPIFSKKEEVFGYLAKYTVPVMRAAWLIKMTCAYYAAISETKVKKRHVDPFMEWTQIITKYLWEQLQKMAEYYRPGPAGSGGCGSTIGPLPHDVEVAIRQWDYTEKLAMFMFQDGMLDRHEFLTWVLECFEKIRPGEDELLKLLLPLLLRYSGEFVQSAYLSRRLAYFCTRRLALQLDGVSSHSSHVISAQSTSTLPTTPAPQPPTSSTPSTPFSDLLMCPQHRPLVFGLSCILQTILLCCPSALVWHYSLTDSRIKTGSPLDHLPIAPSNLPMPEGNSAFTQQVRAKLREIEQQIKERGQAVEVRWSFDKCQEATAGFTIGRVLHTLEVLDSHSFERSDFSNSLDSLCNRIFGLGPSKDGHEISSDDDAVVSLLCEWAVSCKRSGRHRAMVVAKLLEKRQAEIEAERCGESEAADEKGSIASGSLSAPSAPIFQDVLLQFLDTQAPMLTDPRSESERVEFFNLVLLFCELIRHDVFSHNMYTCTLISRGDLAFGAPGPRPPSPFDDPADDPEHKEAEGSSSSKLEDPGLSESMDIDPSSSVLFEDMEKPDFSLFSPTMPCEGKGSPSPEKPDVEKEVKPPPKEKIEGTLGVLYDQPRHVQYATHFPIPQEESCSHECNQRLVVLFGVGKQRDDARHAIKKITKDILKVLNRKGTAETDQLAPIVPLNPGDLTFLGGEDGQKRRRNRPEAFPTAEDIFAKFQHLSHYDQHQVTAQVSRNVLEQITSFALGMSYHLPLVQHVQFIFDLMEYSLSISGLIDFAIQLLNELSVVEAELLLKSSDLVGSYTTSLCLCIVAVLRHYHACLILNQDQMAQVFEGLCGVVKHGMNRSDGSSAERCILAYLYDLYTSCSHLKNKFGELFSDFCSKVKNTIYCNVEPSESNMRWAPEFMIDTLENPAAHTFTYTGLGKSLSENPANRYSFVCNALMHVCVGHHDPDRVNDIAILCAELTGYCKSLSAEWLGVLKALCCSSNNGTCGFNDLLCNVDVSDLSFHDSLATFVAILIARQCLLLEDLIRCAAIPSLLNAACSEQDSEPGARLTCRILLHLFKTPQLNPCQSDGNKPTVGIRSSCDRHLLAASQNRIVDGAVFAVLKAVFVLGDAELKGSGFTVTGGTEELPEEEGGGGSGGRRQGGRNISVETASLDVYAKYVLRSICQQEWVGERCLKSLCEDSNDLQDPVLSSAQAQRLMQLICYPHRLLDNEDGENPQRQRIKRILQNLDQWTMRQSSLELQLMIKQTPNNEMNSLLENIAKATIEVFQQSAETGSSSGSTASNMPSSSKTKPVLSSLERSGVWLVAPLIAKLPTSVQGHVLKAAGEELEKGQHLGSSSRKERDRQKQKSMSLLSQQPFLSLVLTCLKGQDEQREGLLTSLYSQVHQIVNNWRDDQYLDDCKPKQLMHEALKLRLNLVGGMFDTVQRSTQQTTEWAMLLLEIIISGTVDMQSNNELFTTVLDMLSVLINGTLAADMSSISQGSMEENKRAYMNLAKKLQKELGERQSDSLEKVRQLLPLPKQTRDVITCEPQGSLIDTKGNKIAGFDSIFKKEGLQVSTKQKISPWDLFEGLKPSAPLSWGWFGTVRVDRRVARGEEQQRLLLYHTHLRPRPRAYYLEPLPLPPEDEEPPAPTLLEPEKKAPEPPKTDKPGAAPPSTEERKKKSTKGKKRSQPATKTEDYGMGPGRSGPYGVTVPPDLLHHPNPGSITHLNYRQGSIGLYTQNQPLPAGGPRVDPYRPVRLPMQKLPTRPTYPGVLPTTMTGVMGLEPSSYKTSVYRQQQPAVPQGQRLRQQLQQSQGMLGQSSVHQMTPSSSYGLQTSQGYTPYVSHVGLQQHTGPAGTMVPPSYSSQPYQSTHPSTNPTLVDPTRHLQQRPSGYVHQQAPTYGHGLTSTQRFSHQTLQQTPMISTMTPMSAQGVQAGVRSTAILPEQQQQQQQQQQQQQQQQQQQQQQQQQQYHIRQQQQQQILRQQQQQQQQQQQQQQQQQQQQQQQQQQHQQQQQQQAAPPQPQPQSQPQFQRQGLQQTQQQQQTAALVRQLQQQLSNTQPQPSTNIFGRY
SRSF1, Q07955, UniProt Q07955, whole entry: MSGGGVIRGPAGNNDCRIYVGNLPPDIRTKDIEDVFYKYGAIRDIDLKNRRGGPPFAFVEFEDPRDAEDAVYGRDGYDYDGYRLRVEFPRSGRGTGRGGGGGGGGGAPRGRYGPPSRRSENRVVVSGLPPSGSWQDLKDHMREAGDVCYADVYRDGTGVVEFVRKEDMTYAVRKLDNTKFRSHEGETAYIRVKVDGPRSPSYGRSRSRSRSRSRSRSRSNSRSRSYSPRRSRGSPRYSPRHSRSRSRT

Assays:
Assay in all cases: PRISMA enrichment of interactor (LFQ) in peptide spot vs all other peptide spots (log2 fold change); higher = stronger / more specific binding of the interactor to the peptide
AIMP2, Q13155 = molecular target: AIMP2, Q13155
Description: (§1)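 PRISMA: 15-aa overlapping tiles (offset 8 aa) of 60 microproteins, plus SOS1/GLUT1 control peptides, were spot-synthesized on cellulose membranes in triplicate. Membranes were incubated with benzonase-treated HEK293T lysate, and bound proteins were identified by LC-MS/MS with LFQ. Enrichment is the log2 fold change of each protein in one spot versus all other spots. Only interactors passing the significance cutoff are listed.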

ANP32A, P39687 = molecular target: ANP32A, P39687
Description: as §1

C7orf50, Q9BRJ6 = molecular target: C7orf50, Q9BRJ6
Description: as §1

CALU, O43852 = molecular target: CALU, O43852
Description: as §1

CDKN2AIP, Q9NXV6 = molecular target: CDKN2AIP, Q9NXV6
Description: as §1

DCTN1, Q14203 = molecular target: DCTN1, Q14203
Description: as §1

DTYMK, P23919 = molecular target: DTYMK, P23919
Description: as §1

EIF3K, Q9UBQ5 = molecular target: EIF3K, Q9UBQ5
Description: as §1

EIF4G3, O43432 = molecular target: EIF4G3, O43432
Description: as §1

ERLIN1, O75477 = molecular target: ERLIN1, O75477
Description: as §1

HIST1H1E, P10412 = molecular target: HIST1H1E, P10412
Description: as §1

IGLC3, P0DOY3 = molecular target: IGLC3, P0DOY3
Description: as §1

KHDRBS1, Q07666 = molecular target: KHDRBS1, Q07666
Description: as §1

LRPAP1, P30533 = molecular target: LRPAP1, P30533
Description: as §1

MED12, Q93074 = molecular target: MED12, Q93074
Description: as §1

MRPL46, Q9H2W6 = molecular target: MRPL46, Q9H2W6
Description: as §1

NAA35, Q5VZE5 = molecular target: NAA35, Q5VZE5
Description: as §1

NOC4L, Q9BVI4 = molecular target: NOC4L, Q9BVI4
Description: as §1

PACSIN2, Q9UNF0 = molecular target: PACSIN2, Q9UNF0
Description: as §1

[1] = substrate: PC, P11498
Description: as §1

PI4KA, P42356 = molecular target: PI4KA, P42356
Description: as §1

PJA2, O43164 = molecular target: PJA2, O43164
Description: as §1

RBM3, P98179 = molecular target: RBM3, P98179
Description: as §1

RPP38, P78345 = molecular target: RPP38, P78345
Description: as §1

SEPTIN7, Q16181 = molecular target: SEPTIN7, Q16181
Description: as §1

SET, Q01105 = molecular target: SET, Q01105
Description: as §1

SRSF1, Q07955 = molecular target: SRSF1, Q07955
Description: as §1

SRSF2, Q01130 = molecular target: SRSF2, Q01130
Description: as §1

STT3A, P46977 = molecular target: STT3A, P46977
Description: as §1

TOMM34, Q15785 = molecular target: TOMM34, Q15785
Description: as §1

UTP20, O75691 = molecular target: UTP20, O75691
Description: as §1

AK4, P27144 = molecular target: AK4, P27144
Description: as §1

CD2AP, Q9Y5K6 = molecular target: CD2AP, Q9Y5K6
Description: as §1

COG4, Q9H9E3 = molecular target: COG4, Q9H9E3
Description: as §1

DDX46, Q7L014 = molecular target: DDX46, Q7L014
Description: as §1

DNAJC7, Q99615 = molecular target: DNAJC7, Q99615
Description: as §1

GRB10, Q13322 = molecular target: GRB10, Q13322
Description: as §1

HLA-B = molecular target: HLA-B
Description: as §1

HLTF, Q14527 = molecular target: HLTF, Q14527
Description: as §1

HOXB6, P17509 = molecular target: HOXB6, P17509
Description: as §1

OPA1, O60313 = molecular target: OPA1, O60313
Description: as §1

PRRC2A, P48634 = molecular target: PRRC2A, P48634
Description: as §1

SPTY2D1, Q68D10 = molecular target: SPTY2D1, Q68D10
Description: as §1

TIAL1, Q01085 = molecular target: TIAL1, Q01085
Description: as §1

UFD1, Q92890 = molecular target: UFD1, Q92890
Description: as §1

ZBTB11, O95625 = molecular target: ZBTB11, O95625
Description: as §1

Binder: AHRSTARTPAPCGTR [SLCO5A1]
- PRISMA enrichment of interactor (log2) (AIMP2, Q13155): 5.1
- PRISMA enrichment of interactor (log2) (ANP32A, P39687): 7.14
- PRISMA enrichment of interactor (log2) (C7orf50, Q9BRJ6): 13
- PRISMA enrichment of interactor (log2) (CALU, O43852): 4.68
- PRISMA enrichment of interactor (log2) (CDKN2AIP, Q9NXV6): 7.28
- PRISMA enrichment of interactor (log2) (DCTN1, Q14203): 5.63
- PRISMA enrichment of interactor (log2) (DTYMK, P23919): 5.74
- PRISMA enrichment of interactor (log2) (EIF3K, Q9UBQ5): 4.21
- PRISMA enrichment of interactor (log2) (EIF4G3, O43432): 4.43
- PRISMA enrichment of interactor (log2) (ERLIN1, O75477): 6
- PRISMA enrichment of interactor (log2) (HIST1H1E, P10412): 5.75
- PRISMA enrichment of interactor (log2) (IGLC3, P0DOY3): 4.39
- PRISMA enrichment of interactor (log2) (KHDRBS1, Q07666): 5.6
- PRISMA enrichment of interactor (log2) (LRPAP1, P30533): 4.45
- PRISMA enrichment of interactor (log2) (MED12, Q93074): 4.4
- PRISMA enrichment of interactor (log2) (MRPL46, Q9H2W6): 5.97
- PRISMA enrichment of interactor (log2) (NAA35, Q5VZE5): 4.45
- PRISMA enrichment of interactor (log2) (NOC4L, Q9BVI4): 4.41
- PRISMA enrichment of interactor (log2) (PACSIN2, Q9UNF0): 4.34
- PRISMA enrichment of interactor (log2) [1]: 6.34
- PRISMA enrichment of interactor (log2) (PI4KA, P42356): 5.56
- PRISMA enrichment of interactor (log2) (PJA2, O43164): 4.87
- PRISMA enrichment of interactor (log2) (RBM3, P98179): 5.92
- PRISMA enrichment of interactor (log2) (RPP38, P78345): 4.5
- PRISMA enrichment of interactor (log2) (SEPTIN7, Q16181): 4.15
- PRISMA enrichment of interactor (log2) (SET, Q01105): 5.11
- PRISMA enrichment of interactor (log2) (SRSF1, Q07955): 5.63
- PRISMA enrichment of interactor (log2) (SRSF2, Q01130): 5.01
- PRISMA enrichment of interactor (log2) (STT3A, P46977): 7.76
- PRISMA enrichment of interactor (log2) (TOMM34, Q15785): 4.73
- PRISMA enrichment of interactor (log2) (UTP20, O75691): 6.88

Binder: WPHCEERQKPAVAAG [RP11-644F5.11]
- PRISMA enrichment of interactor (log2) (AK4, P27144): 10.7
- PRISMA enrichment of interactor (log2) (CD2AP, Q9Y5K6): 5.69
- PRISMA enrichment of interactor (log2) (COG4, Q9H9E3): 5.22
- PRISMA enrichment of interactor (log2) (DDX46, Q7L014): 4.54
- PRISMA enrichment of interactor (log2) (DNAJC7, Q99615): 5.37
- PRISMA enrichment of interactor (log2) (GRB10, Q13322): 4.97
- PRISMA enrichment of interactor (log2) (HLA-B): 4.75
- PRISMA enrichment of interactor (log2) (HLTF, Q14527): 6.71
- PRISMA enrichment of interactor (log2) (HOXB6, P17509): 3.74
- PRISMA enrichment of interactor (log2) (OPA1, O60313): 5.06
- PRISMA enrichment of interactor (log2) (PRRC2A, P48634): 6.03
- PRISMA enrichment of interactor (log2) (SPTY2D1, Q68D10): 5.68
- PRISMA enrichment of interactor (log2) (TIAL1, Q01085): 6.01
- PRISMA enrichment of interactor (log2) (UFD1, Q92890): 4.56
- PRISMA enrichment of interactor (log2) (ZBTB11, O95625): 4.61
